# Measurements reported in the supplement of paper PMC8728848.
# The other results are listed elsewhere or left out.
# Key:
# Test in all cases: glycan array binding signal (z-score within array); higher = stronger binding
# Conditions in all cases: glycan notation: IUPAC condensed, linker removed
# [1] = molecular target: GlcNAc(b1-2)Gal(b1-3)GalNAc
# Method in brief: (§1)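 Glycan array data were curated from 3228 arrays in the Consortium for Functional Glycomics database and kept only where the protein sequence was available. Glycan names were converted to IUPAC-condensed notation, and columns mapping to the same glycan were averaged. The binding signal is a within-array Z-score, averaged across arrays of the same protein sequence at different concentrations or buffers and across linkers. Negative Z-scores can be read as non-binding.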
# [2] = molecular target: GlcNAc(b1-2)Man(a1-3)[GlcNAc(b1-2)Man(a1-6)]Man(b1-4)GlcNAc(b1-4)GlcNAc
# Method in brief: as §1
# [3] = molecular target: GlcNAc(b1-2)Man(a1-3)[GlcNAc(b1-2)Man(a1-6)]Man(b1-4)GlcNAc(b1-4)[Fuc(a1-6)]GlcNAc
# Method in brief: as §1
# [4] = molecular target: GlcNAc(b1-2)Man(a1-3)[GlcNAc(b1-4)][GlcNAc(b1-2)Man(a1-6)]Man(b1-4)GlcNAc(b1-4)GlcNAc
# Method in brief: as §1
# [5] = molecular target: GlcNAc(b1-2)Man(a1-3)[GlcNAc(b1-4)][GlcNAc(b1-2)Man(a1-6)]Man(b1-4)GlcNAc(b1-4)[Fuc(a1-6)]GlcNAc
# Method in brief: as §1
# [6] = molecular target: GlcNAc(b1-2)[GlcNAc(b1-4)]Man(a1-3)[GlcNAc(b1-2)Man(a1-6)]Man(b1-4)GlcNAc(b1-4)GlcNAc
# Method in brief: as §1
# [7] = molecular target: GlcNAc(b1-2)[GlcNAc(b1-4)]Man(a1-3)[GlcNAc(b1-4)][GlcNAc(b1-2)Man(a1-6)]Man(b1-4)GlcNAc(b1-4)GlcNAc
# Method in brief: as §1
# [8] = molecular target: GlcNAc(b1-2)[GlcNAc(b1-4)]Man(a1-3)[GlcNAc(b1-4)][GlcNAc(b1-2)[GlcNAc(b1-6)]Man(a1-6)]Man(b1-4)GlcNAc(b1-4)GlcNAc
# Method in brief: as §1
# [9] = molecular target: GlcNAc(b1-2)[GlcNAc(b1-4)]Man(a1-3)[GlcNAc(b1-4)][GlcNAc(b1-2)[GlcNAc(b1-6)]Man(a1-6)]Man(b1-4)GlcNAc(b1-4)[Fuc(a1-6)]GlcNAc
# Method in brief: as §1
# [10] = molecular target: GlcNAc(b1-2)[GlcNAc(b1-6)]Man(a1-6)[GlcNAc(b1-2)Man(a1-3)]Man(b1-4)GlcNAc(b1-4)GlcNAc
# Method in brief: as §1
# [11] = molecular target: GlcNAc(b1-2)[GlcNAc(b1-6)]Man(a1-6)[GlcNAc(b1-2)Man(a1-3)]Man(b1-4)GlcNAc(b1-4)[Fuc(a1-6)]GlcNAc
# Method in brief: as §1
# [12] = molecular target: GlcNAc(b1-2)[GlcNAc(b1-6)]Man(a1-6)[GlcNAc(b1-4)][GlcNAc(b1-2)Man(a1-3)]Man(b1-4)GlcNAc(b1-4)GlcNAc
# Method in brief: as §1
# [13] = molecular target: GlcNAc(b1-3)Fuc
# Method in brief: as §1
# [14] = molecular target: GlcNAc(b1-3)Gal
# Method in brief: as §1
# [15] = molecular target: GlcNAc(b1-3)Gal(b1-3)GalNAc
# Method in brief: as §1
# [16] = molecular target: GlcNAc(b1-3)Gal(b1-4)Glc
# Method in brief: as §1
# [17] = molecular target: GlcNAc(b1-3)Gal(b1-4)GlcNAc
# Method in brief: as §1
# [18] = molecular target: GlcNAc(b1-3)Gal(b1-4)GlcNAc(b1-2)Man(a1-3)[GlcNAc(b1-3)Gal(b1-4)GlcNAc(b1-2)Man(a1-6)]Man(b1-4)GlcNAc(b1-4)GlcNAc
# Method in brief: as §1
# [19] = molecular target: GlcNAc(b1-3)Gal(b1-4)GlcNAc(b1-2)Man(a1-3)[GlcNAc(b1-3)Gal(b1-4)GlcNAc(b1-2)Man(a1-6)]Man(b1-4)GlcNAc(b1-4)[Fuc(a1-6)]GlcNAc
# Method in brief: as §1
# [20] = molecular target: GlcNAc(b1-3)Gal(b1-4)GlcNAc(b1-2)[GlcNAc(b1-3)Gal(b1-4)GlcNAc(b1-6)]Man(a1-6)[GlcNAc(b1-3)Gal(b1-4)GlcNAc(b1-2)Man(a1-3)]Man(b1-4)GlcNAc(b1-4)GlcNAc
# Method in brief: as §1
# [21] = molecular target: GlcNAc(b1-3)Gal(b1-4)GlcNAc(b1-3)Gal(b1-4)GlcNAc
# Method in brief: as §1
# [22] = molecular target: GlcNAc(b1-3)Gal(b1-4)GlcNAc(b1-3)Gal(b1-4)GlcNAc(b1-2)Man(a1-3)[GlcNAc(b1-3)Gal(b1-4)GlcNAc(b1-3)Gal(b1-4)GlcNAc(b1-2)Man(a1-6)]Man(b1-4)GlcNAc(b1-4)GlcNAc
# Method in brief: as §1
binder,measurement,setting,value
PX14343C-bfa-541-26-541 (Bacteroides fragilis) (protein) KAPLDEIADDSFWSDETLVKYYVNDLYSEISVDGLQLQENRSDNSVSAQRDKYRASWFKFNYDMVSASDPQDDDVWEDYYVKVRKCNRFFERIGTSTIEESEKSRLTGEVHFLRAMFYFEMVKRYGGVILLDKVLTMEDNWEIPRSSEKECYDFILEDLKKATEMLPASYGSREKGRATKGAAYALKSRVELYDKRYEDVIKSCAEVYKLGYELVDGTTPEKYRSIWWTTNKDNKEIIFDVQYKSPDVYNNMMVCNMVTYINDKYGDRGWGGLGPTQELIDAFEMADGTPATQYSQAPADQVFDINTCGIYEGREPRFYANIVFHGSQIFFNADKGAVTVDRYLMDTPDKGDGSLTGYNVWKWIDYDNYNYPYAGAGSPDFSTNWIILRYAEIYLNDAEARLETGDVEGARKAVNMIRQRVGLPDLTESDPEKLRELIRKERRIEFAFEEQRFYDVRRWKIGPETQTTLHGVRFVSPTEFKVTKTDIRTWNDRLYLTPVPHDEIVRSSVLKQNLGY,glycan array binding signal (z-score),[1],-0.932
same,glycan array binding signal (z-score),[2],-0.69
same,glycan array binding signal (z-score),[3],-0.455
same,glycan array binding signal (z-score),[4],-0.078
same,glycan array binding signal (z-score),[5],0.535
same,glycan array binding signal (z-score),[6],-0.156
same,glycan array binding signal (z-score),[7],-0.349
same,glycan array binding signal (z-score),[8],0.147
same,glycan array binding signal (z-score),[9],-1.03
same,glycan array binding signal (z-score),[10],-0.274
same,glycan array binding signal (z-score),[11],-0.72
same,glycan array binding signal (z-score),[12],-0.265
same,glycan array binding signal (z-score),[13],-0.353
same,glycan array binding signal (z-score),[14],-0.587
same,glycan array binding signal (z-score),[15],0.341
same,glycan array binding signal (z-score),[16],-1.11
same,glycan array binding signal (z-score),[17],-0.99
same,glycan array binding signal (z-score),[18],-0.343
same,glycan array binding signal (z-score),[19],0.544
same,glycan array binding signal (z-score),[20],0.567
same,glycan array binding signal (z-score),[21],-0.757
same,glycan array binding signal (z-score),[22],0.981

# Quoted at random: two records from the list, in no set order.
binder,measurement,setting,value
PX14343C-bfa-541-26-541 (Bacteroides fragilis) (protein) KAPLDEIADDSFWSDETLVKYYVNDLYSEISVDGLQLQENRSDNSVSAQRDKYRASWFKFNYDMVSASDPQDDDVWEDYYVKVRKCNRFFERIGTSTIEESEKSRLTGEVHFLRAMFYFEMVKRYGGVILLDKVLTMEDNWEIPRSSEKECYDFILEDLKKATEMLPASYGSREKGRATKGAAYALKSRVELYDKRYEDVIKSCAEVYKLGYELVDGTTPEKYRSIWWTTNKDNKEIIFDVQYKSPDVYNNMMVCNMVTYINDKYGDRGWGGLGPTQELIDAFEMADGTPATQYSQAPADQVFDINTCGIYEGREPRFYANIVFHGSQIFFNADKGAVTVDRYLMDTPDKGDGSLTGYNVWKWIDYDNYNYPYAGAGSPDFSTNWIILRYAEIYLNDAEARLETGDVEGARKAVNMIRQRVGLPDLTESDPEKLRELIRKERRIEFAFEEQRFYDVRRWKIGPETQTTLHGVRFVSPTEFKVTKTDIRTWNDRLYLTPVPHDEIVRSSVLKQNLGY,glycan array binding signal (z-score),[14],-0.587
same,glycan array binding signal (z-score),[22],0.981
